Measurements reported in PubChem BioAssay AID493014 (National Center for Advancing Translational Sciences (NCATS), 2011).
This is one part of the list. The main result of the screen is listed elsewhere. These columns were measured beside it and carry no call. The list favours compounds with an active or inconclusive main result. Potencies come from curve fits of mixed quality, noted in brackets.

Experiment: qHTS Assay to Find Inhibitors of Chronic Active B-Cell Receptor Signaling
Conditions: ABC-DLBCL IkBa-CBG/CBR reporter, luminescence ratio (green luciferase fused to IkBa over red control in TMD8 lymphoma cells), 4 h
Summary of the method: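 TMD8 human ABC-DLBCL cells with doxycycline-inducible IκBα–green luciferase fusion and unfused red luciferase, in 0.5% FBS medium; compounds up to 46 uM, 4 h at 37C. Green/red luminescence ratio, filter-overlap corrected, fitted to concentration-response curves.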

[1] = measured here: CBR red luminescence, cell number
[2] = measured here: IkBa-CBG green luminescence

Structure (SMILES)	AC50 [1]	AC50 [2]
Cc1onc(-c2ccccc2Cl)c1C(=O)OCC(=O)c1ccc2c(c1)OCCO2	17.8 µM [falling, partial curve]	–
COc1cc2c(cc1O)[C@@H]1Cc3ccc(OC)c(O)c3CN1CC2	10.3 µM [rising, partial curve]	20.6 µM [falling, single point]
CCc1cc2c(N3CCN(C)CC3)ncnc2s1	0.116 µM [rising, full curve]	–
C=Cn1ccnc1P(=S)(c1ccc(N(C)C)cc1)c1nccn1C=C	6.31 µM [rising, single point]	–
Clc1ccc2c(c1)C(OC1CN3CCC1CC3)c1ccccc1CS2 (stereo not drawn)	18.4 µM [falling, partial curve, poor fit]	–
N#CC1=C(N)C(C#N)(C#N)[C@H](c2ccncc2)[C@H]2CN(C(=O)OCc3ccccc3)CC=C12	20.6 µM [falling, single point]	–
CCCn1cc2c3c(cccc31)C1CC(C)CN(C)C1C2 (stereo not drawn)	2.24 µM [rising, partial curve, poor fit]	–
Cn1cccc1/C=C1/C(=O)NC(=O)N(Cc2ccccc2)C1=O	29.1 µM [rising, single point]	25.9 µM [falling, single point]
COc1cc(C2c3cc4c(cc3CC3COC(=O)C32)OCO4)cc(OC)c1OC (stereo not drawn)	10.3 µM [rising, partial curve]	11.6 µM [falling, partial curve]
CC(=O)N1N=C(c2c(O)n(C)c(=O)n(C)c2=O)CC1c1ccccc1 (stereo not drawn)	35.5 µM [falling, single point]	–
CCOC(=O)c1c(C)[nH]c(C(=O)OCC(=O)N2c3ccccc3CC2C)c1C (stereo not drawn)	35.5 µM [falling, single point]	–
CN1CCN(C(=S)SCC(=O)Nc2ccc(Cl)cc2C(=O)c2ccccc2)CC1	25.9 µM [falling, partial curve, poor fit]	–
CC/C(C)=N/NC(=O)c1[nH]c2ccc(C)cc2c1-c1ccccc1	7.94 µM [rising, partial curve]	–
Cc1ccc(/C=C(/C#N)C(=O)NC(=O)Oc2ccccc2)cc1	29.1 µM [falling, single point]	–
C/C(=N\NP(=S)(c1ccccc1)c1ccccc1)c1ccc(O)cc1O	3.98 µM [falling, partial curve, poor fit]	–
Cc1ccccc1C(O)(Cc1ccccc1)C1CN2CCC1CC2 (stereo not drawn)	11.6 µM [falling, single point]	–
C/C1=C\[C@@H](C)C/C=C/[C@H]2[C@@H]3O[C@]3(C)[C@@H](C)[C@H]3[C@H](Cc4c[nH]c5ccccc45)NC(=O)[C@]32C(=O)/C=C/C(=O)[C@@H]1O	35.5 µM [falling, single point]	–
O=C(COc1ccc2ccccc2c1)N1CCN(Cc2c[nH]c3ccccc23)CC1	13 µM [falling, partial curve, poor fit]	–
O=C(Cn1c(=O)oc2ccccc21)Nc1ccc(F)cc1	5.01 µM [falling, full curve]	–

Some of these compounds in order of length of the SMILES, largest number first:
Structure (SMILES)	AC50 [1]	AC50 [2]
CCOC(=O)c1c(C)[nH]c(C(=O)OCC(=O)N2c3ccccc3CC2C)c1C (stereo not drawn)	35.5 µM [falling, single point]	–
COc1cc2c(cc1O)[C@@H]1Cc3ccc(OC)c(O)c3CN1CC2	10.3 µM [rising, partial curve]	20.6 µM [falling, single point]
O=C(Cn1c(=O)oc2ccccc21)Nc1ccc(F)cc1	5.01 µM [falling, full curve]	–

Continued:

Structure (SMILES)	AC50 [1]	AC50 [2]
COc1ccc(N2C(=O)NC(=O)/C(=C\c3cn(C)c4ccccc34)C2=O)cc1	4.47 µM [rising, single point]	–
Nc1ncnc2c1ncn2C1OC(COP(=O)(O)O)C(O)C1O (stereo not drawn)	10 µM [rising, partial curve]	–
Cc1ccc(-n2nc(C)c(C3C(C#N)=C(N)Oc4c3c(=O)oc3ccccc43)c2Cl)cc1 (stereo not drawn)	23.1 µM [falling, single point]	–
COC(=O)C1=C(c2ccccc2)C[C@@H]2CC[C@H]1N2C	1.84 µM [falling, partial curve]	–
Cc1ccc2c(c1)C1CN(C)CCC1N2C(=O)CCCN1C(=O)c2cccc3cccc(c23)C1=O (stereo not drawn)	1.58 µM [rising, full curve, poor fit]	–
C[C@@H]1O[C@@H](O[C@H]2C[C@@H](O)[C@]3(CO)[C@H]4[C@H](O)C[C@]5(C)[C@@H](C6COC(=O)C6)CC[C@]5(O)[C@@H]4CC[C@]3(O)C2)[C@H](O)[C@H](O)[C@H]1O (stereo partly drawn)	1.78 µM [falling, full curve, poor fit]	23.1 µM [rising, partial curve, poor fit]
Cc1ccccc1OC(=O)n1c(=S)oc2cc(Cl)ccc21	18.4 µM [rising, single point]	–
CC(C)[C@H]1C(=O)O[C@H](C(C)C)C(=O)N(C)[C@@H](C(C)C)C(=O)O[C@H](C(C)C)C(=O)N(C)[C@@H](C(C)C)C(=O)O[C@H](C(C)C)C(=O)N1C	4.47 µM [falling, full curve, poor fit]	–
O=C(/C=C/c1ccco1)NC(=S)Nc1ccccc1O	11.2 µM [falling, partial curve]	–
O=c1[nH]c2ccccc2n1CCCN1CCC(n2c(=O)[nH]c3cc(Cl)ccc32)CC1	7.08 µM [falling, partial curve, poor fit]	–
CCCCn1c(=O)c(C(=O)Nc2nnc(C(C)C)s2)c(O)c2ccccc21	0.447 µM [falling, full curve, poor fit]	–
CN1C2CCC1/C(=C/c1ccccn1)C(=O)/C2=C\c1ccccn1	2.59 µM [falling, full curve]	–
O=C1C=C2C=C[C@H]3C[C@]2(O1)[C@@H]1CCCCN13	20.6 µM [falling, single point]	–
CCCCOCCCn1c(N)c(C(=O)OCCOC)c2nc3ccccc3nc21	–	35.5 µM [falling, partial curve, poor fit]
CN(C)P(=O)(C(Cl)=C(N1CCCCC1)N1CCCCC1)N(C)C	3.16 µM [rising, partial curve, poor fit]	–
COc1cccc(C(=O)C2CCCN(Cc3cccc4c3OCO4)C2)c1 (stereo not drawn)	35.5 µM [falling, single point]	–
O=C(Cc1csc(Nc2nc(=S)[nH]c3ccccc23)n1)NCCCN1CCN(c2ccccc2F)CC1	11.2 µM [falling, partial curve, poor fit]	–
O=C1NC(=O)N(c2ccccc2)C(=O)/C1=C\C=C\c1ccccc1	35.5 µM [falling, single point]	–
Cn1c(=O)oc2cc(S(=O)(=O)NCc3ccccc3)ccc21	0.116 µM [falling, full curve, poor fit]	–

Structure (SMILES)	AC50 [1]	AC50 [2]
CCN(CC)CCOC(=O)c1ccc(N=Cc2c(O)[nH]c(=O)[nH]c2=O)cc1	3.55 µM [rising, partial curve]	–
CC(C)N(CC(=O)Nc1ccc(Cl)cc1C(F)(F)F)C(=O)CCl	10 µM [falling, partial curve]	–
COC(=O)C(O)(c1ccc(NC(=S)NC(=O)c2ccc(Cl)cc2Cl)c(C)c1)C(F)(F)F (stereo not drawn)	18.4 µM [falling, single point]	–
COc1ccccc1N(CC(=O)NC1CCCC1)C(=O)c1cnn(C(C)C)c1	23.1 µM [falling, single point]	–
Cc1cc(C)n(-c2ccc(NN=C(C#N)C#N)cc2)n1	15.8 µM [falling, partial curve, poor fit]	–
c1ccc2sc(N3CCNCC3)nc2c1	12.6 µM [rising, partial curve, poor fit]	–
C[C@]12CCC3C(CC[C@H]4C[C@H](O)CC[C@]34C)C1CC(=O)[C@@H]2O (stereo partly drawn)	2.06 µM [rising, partial curve, poor fit]	–
O=C(Nc1cccc(Cl)c1)OC1CN2CCC1CC2 (stereo not drawn)	0.398 µM [rising, full curve, poor fit]	–
CC(=NCC1CCCO1)c1c(O)n(-c2ccc(Cl)cc2)c(=O)[nH]c1=O (stereo not drawn)	0.291 µM [rising, full curve, poor fit]	–
COc1ccc(N2C(=O)/C(=C/c3cccs3)C(=O)NC2=S)cc1	6.31 µM [rising, partial curve, poor fit]	–
Cc1nc2ccccc2n1C1CCN(Cc2nnnn2CCc2ccccc2)CC1	0.794 µM [rising, full curve, poor fit]	–
CC(=O)OC(C)(C)/C=C/C(=O)[C@](C)(O)[C@H]1[C@H](O)C[C@@]2(C)[C@@H]3CC=C4[C@H](C[C@H](O)C(=O)C4(C)C)[C@]3(C)C(=O)C[C@]12C	6.51 µM [falling, partial curve]	–
O=C1NC(=O)N(c2ccccc2)C(=O)/C1=C\c1ccccc1[N+](=O)[O-]	35.5 µM [falling, single point]	–
Nc1nc(-c2ccccc2)cc(N2CCCCC2)n1	22.4 µM [rising, single point]	–
O=C1NC(=O)C2=Cc3ccc(O)cc3OC2(O)N1 (stereo not drawn)	35.5 µM [falling, single point]	–
C=C1C(=O)O[C@@H]2C[C@@H](C)[C@@H]3C4OC4C(=O)[C@@]3(C)[C@@H](O)[C@H]12 (stereo partly drawn)	15.8 µM [falling, single point]	31.6 µM [rising, single point]
CCc1ccccc1N1C(=O)/C(=C/c2ccc(N3CCN(C)CC3)o2)C(=O)NC1=S	23.1 µM [rising, partial curve]	23.1 µM [falling, partial curve, poor fit]
CC(C)CCOC(=O)c1c(N)n(CC2CCCO2)c2nc3ccccc3nc12 (stereo not drawn)	7.31 µM [falling, partial curve]	–
COc1ccccc1NC(=O)C/C(C)=N/NC(=O)c1ccccn1	12.6 µM [falling, partial curve, poor fit]	–
